The values that follow come from PMC6899524.

The target in test [1] is apoptotic protease activating factor 1 (APAF1) (human (endogenous in U2OS)) (UniProt O14727). Kind of test: sucrose gradient sedimentation; extracts of H6 NEDP1 knockout U2OS cells, DMSO or etoposide (50 µM, 15 h), on a 10%-50% sucrose gradient, fractions blotted for APAF1.
The target of test [2] is T1, apoptotic protease activating factor 1 (APAF1) (human (endogenous in U2OS)), O14727.
T1 chain: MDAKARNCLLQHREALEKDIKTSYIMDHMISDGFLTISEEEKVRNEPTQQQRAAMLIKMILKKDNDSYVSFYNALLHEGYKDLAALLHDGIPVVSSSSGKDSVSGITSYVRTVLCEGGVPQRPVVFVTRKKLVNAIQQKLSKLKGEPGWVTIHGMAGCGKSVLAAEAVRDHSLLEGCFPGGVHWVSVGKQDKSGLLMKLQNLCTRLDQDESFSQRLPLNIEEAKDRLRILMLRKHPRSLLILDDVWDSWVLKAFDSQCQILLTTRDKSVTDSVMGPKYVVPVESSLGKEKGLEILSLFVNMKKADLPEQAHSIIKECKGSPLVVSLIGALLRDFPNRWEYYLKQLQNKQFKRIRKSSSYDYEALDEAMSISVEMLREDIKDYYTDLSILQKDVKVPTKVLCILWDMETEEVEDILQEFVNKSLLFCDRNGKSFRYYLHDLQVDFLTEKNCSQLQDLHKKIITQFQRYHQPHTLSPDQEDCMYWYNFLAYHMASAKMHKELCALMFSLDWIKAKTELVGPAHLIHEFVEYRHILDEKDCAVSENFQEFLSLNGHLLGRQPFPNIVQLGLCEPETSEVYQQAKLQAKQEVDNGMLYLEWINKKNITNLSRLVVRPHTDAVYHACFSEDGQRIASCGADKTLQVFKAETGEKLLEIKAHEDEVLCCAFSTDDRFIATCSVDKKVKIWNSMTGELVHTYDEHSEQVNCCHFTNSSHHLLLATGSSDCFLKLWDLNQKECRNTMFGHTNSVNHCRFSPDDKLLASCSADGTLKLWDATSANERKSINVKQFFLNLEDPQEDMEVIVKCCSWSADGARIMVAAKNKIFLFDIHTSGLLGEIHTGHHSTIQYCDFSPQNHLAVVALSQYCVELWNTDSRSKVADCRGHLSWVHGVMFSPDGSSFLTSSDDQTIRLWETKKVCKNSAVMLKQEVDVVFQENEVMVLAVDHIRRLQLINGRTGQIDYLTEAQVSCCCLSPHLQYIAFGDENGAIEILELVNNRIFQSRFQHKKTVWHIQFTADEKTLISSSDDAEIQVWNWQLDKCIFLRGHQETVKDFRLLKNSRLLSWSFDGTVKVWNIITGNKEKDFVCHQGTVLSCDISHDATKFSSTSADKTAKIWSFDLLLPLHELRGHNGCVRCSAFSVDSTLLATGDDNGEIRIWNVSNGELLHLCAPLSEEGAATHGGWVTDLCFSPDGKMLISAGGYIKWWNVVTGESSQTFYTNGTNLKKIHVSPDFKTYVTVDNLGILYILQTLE
Description: sucrose gradient sedimentation; extracts of parental U2OS cells exposed to etoposide (50 µM, 15 h) on a 10%-50% sucrose gradient, fractions blotted for APAF1. Particulars: remark: other sources report otherwise.

No constants are given. Whether binding was seen depends on the method and setting. Some results given as binding are weak or reduced against the parent protein; the word gives no strength.

For the molecule “apoptotic protease activating factor 1 (APAF1) (from UniProt O14727 1-1248)”, the binding result in test [1] is “no binding (condition: in H6 NEDP1 knockout cells)”.

B1: apoptotic protease activating factor 1 (APAF1), O14727 1-1248 (protein)
chain: MDAKARNCLLQHREALEKDIKTSYIMDHMISDGFLTISEEEKVRNEPTQQQRAAMLIKMILKKDNDSYVSFYNALLHEGYKDLAALLHDGIPVVSSSSGKDSVSGITSYVRTVLCEGGVPQRPVVFVTRKKLVNAIQQKLSKLKGEPGWVTIHGMAGCGKSVLAAEAVRDHSLLEGCFPGGVHWVSVGKQDKSGLLMKLQNLCTRLDQDESFSQRLPLNIEEAKDRLRILMLRKHPRSLLILDDVWDSWVLKAFDSQCQILLTTRDKSVTDSVMGPKYVVPVESSLGKEKGLEILSLFVNMKKADLPEQAHSIIKECKGSPLVVSLIGALLRDFPNRWEYYLKQLQNKQFKRIRKSSSYDYEALDEAMSISVEMLREDIKDYYTDLSILQKDVKVPTKVLCILWDMETEEVEDILQEFVNKSLLFCDRNGKSFRYYLHDLQVDFLTEKNCSQLQDLHKKIITQFQRYHQPHTLSPDQEDCMYWYNFLAYHMASAKMHKELCALMFSLDWIKAKTELVGPAHLIHEFVEYRHILDEKDCAVSENFQEFLSLNGHLLGRQPFPNIVQLGLCEPETSEVYQQAKLQAKQEVDNGMLYLEWINKKNITNLSRLVVRPHTDAVYHACFSEDGQRIASCGADKTLQVFKAETGEKLLEIKAHEDEVLCCAFSTDDRFIATCSVDKKVKIWNSMTGELVHTYDEHSEQVNCCHFTNSSHHLLLATGSSDCFLKLWDLNQKECRNTMFGHTNSVNHCRFSPDDKLLASCSADGTLKLWDATSANERKSINVKQFFLNLEDPQEDMEVIVKCCSWSADGARIMVAAKNKIFLFDIHTSGLLGEIHTGHHSTIQYCDFSPQNHLAVVALSQYCVELWNTDSRSKVADCRGHLSWVHGVMFSPDGSSFLTSSDDQTIRLWETKKVCKNSAVMLKQEVDVVFQENEVMVLAVDHIRRLQLINGRTGQIDYLTEAQVSCCCLSPHLQYIAFGDENGAIEILELVNNRIFQSRFQHKKTVWHIQFTADEKTLISSSDDAEIQVWNWQLDKCIFLRGHQETVKDFRLLKNSRLLSWSFDGTVKVWNIITGNKEKDFVCHQGTVLSCDISHDATKFSSTSADKTAKIWSFDLLLPLHELRGHNGCVRCSAFSVDSTLLATGDDNGEIRIWNVSNGELLHLCAPLSEEGAATHGGWVTDLCFSPDGKMLISAGGYIKWWNVVTGESSQTFYTNGTNLKKIHVSPDFKTYVTVDNLGILYILQTLE
Regarding B1, the binding entry in test [2] is reported as “binds”.
